# From patent US11633505B2, “Nuclear magnetic resonance diagnostic agent, and method for detecting or diagnosing state of cell, tissue or organ in subject using same” (National University Corporation Kumamoto University, priority 2012, dated 2023)
# Entries after “also recorded” stand apart in the source; their conditions may differ. At least one structure is not confirmed: it was looked up by name or label, or the drawing left a doubt.
# Test system: Brain tumor (9 L gliosarcoma)
# Assay: MRI (7T, 2D-RARE) T1/T2 measurement of excised subcutaneous tumor after ALA administration
smiles,measurement,setting,value
"NCC(=O)CCC(=O)O [ALA, 5-aminolevulinic acid]",T2 value (T2 relaxation time) compared to the control group,"ALA administration group vs control group, tumor ROI",increased
same,signals in the tumor region in the T2-weighted image compared to the control group,"T2WI, TE 99 or 100 ms, TR 5000 ms, FIG. 2 and FIG. 3",enhanced (increased); also recorded: imaged in white (at high signals)
